# Assay results taken from PubChem BioAssay AID493014 (National Center for Advancing Translational Sciences (NCATS), 2011).
# About 170 (0.05%) of roughly 340,000 compounds were called active. The shares of active, inactive and inconclusive entries below differ from those in the screen. Calls come from the whole dose curve; as a rule, active = well fitted inhibition curve with a large enough effect in the signal ratio, with a control signal flat (not every such curve was filed as active); inconclusive = small, poorly fitted or top-dose-only effect, or effect the other way, or a change in a side signal; inactive = flat fitted curve, though single readings scatter; the % refers to the signal ratio. Potencies of inconclusive entries are doubtful fits and often do not repeat.
# Assay: qHTS Assay to Find Inhibitors of Chronic Active B-Cell Receptor Signaling;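 for activity change, negative = inhibition: plate controls were basal doxycycline-induced cells for no effect and cells given 10 µM MG132 for full effect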
# Details: ABC-DLBCL IkBa-CBG/CBR reporter, luminescence ratio (green luciferase fused to IkBa over red control in TMD8 lymphoma cells), 4 h; activity change, negative = inhibition: at 46.1 µM (top of the series) unless noted
# In short: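 Compounds up to 46 uM were incubated four hours with TMD8 cells whose green CBG68 luciferase is fused to IkappaBalpha; red CBR luminescence normalised the signal, and concentration-effect curves were fitted to fusion, red and ratio data.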
# Potency is the fitted concentration of half-maximal effect.
Compound,Potency,"activity change, negative = inhibition"
COc1ccc(C)cc1NC(=O)CN1C(=O)c2cccc3cccc1c23,"inconclusive: 20.6 µM [falling, single point]",–
CN1C(=O)CC(N2CCN(CCN=CC3=C(O)CC(C)(C)CC3=O)CC2)C1=O (stereo not given),–,inconclusive: -3.39%
COc1cccc(CN2CCNC(=O)C2CC(=O)N(C)CCc2ccccn2)c1OC (stereo not given),–,inconclusive: 4.49%
CCOc1ccc(S(=O)(=O)Nc2cc(OC)ccc2OC)cc1,–,inconclusive: -18.4%
CC(C)c1ccccc1NC(=O)COc1ccc2c(=O)c(Oc3ccc4ccccc4c3)coc2c1,–,inconclusive: -1.4%
CCn1c(C)c(C)c2cc(C(=O)NCCc3ccco3)ccc21,–,inactive: 8.14%
CCn1c(SCC(=O)NCC2CCCO2)nc2c([nH]c3ccccc32)c1=O (stereo not given),–,inconclusive: 1.41%
Fc1ccccc1CN(CCN1CCOCC1)C(=S)Nc1ccccc1Cl,–,inactive: -2.83%
Cc1[nH]c2ccccc2c1C(=O)COC(=O)c1c(-c2ccccc2Cl)noc1C,–,inconclusive: 11.8%
CC(Sc1nc2c(c(=O)[nH]1)CCCC2)C(=O)Nc1ccc(Br)cn1 (stereo not given),–,inactive: 5.47%
CCCCN(C)CCN1C(=O)C2C(C(=O)Nc3ccc(Cl)cc3)C3C=CC2(O3)C1C(=O)NC1CCCCC1 (stereo not given),–,inactive: 3.89%
Clc1ccc(CNc2nnnn2-c2ccccc2)c(Cl)c1,–,inconclusive: 2.25%
Fc1cc(F)c(NC(=S)N2CCOCC2)c(F)c1,–,inconclusive: 0.709%
Cc1cc(C)nc(NN2C(=O)/C(=C/c3ccc(O)cc3)SC2=S)n1,–,inactive: 7.33%
Cc1cccc2cc(COC(=O)c3ccccn3)c(=O)[nH]c12,–,inconclusive: -3.95%
C=CCn1c(NC(=O)c2ccco2)nc2ccccc21,–,inconclusive: 2.99%
Cc1cc(NC(=O)c2cc3cccc([N+](=O)[O-])c3[nH]2)ccc1F,–,inconclusive: 2.46%
C/C(=N\Nc1nc(C(C)(C)C)cs1)c1ccc(O)cc1,–,inconclusive: -0.58%
COC(=O)c1c(NC(=O)CC2Nc3cc(C)c(C)cc3NC2=O)sc(C)c1C (stereo not given),–,inconclusive: 19.7%
Cc1cccnc1NC(=O)Nc1cccc(Cl)c1,–,inconclusive: 5.55%
COc1ccc(/C=C(/NC(=O)c2ccco2)C(=O)N2CCCC2=O)cc1,–,inactive: 0.131%
Fc1ccc(/C=N/Nc2ncnc3nc[nH]c23)cc1F,–,inconclusive: -14.3%

Compound,Potency,"activity change, negative = inhibition"
O=c1[nH]ncc(N/N=C/c2ccccc2)c1Cl,–,inconclusive: 18.3%
CCn1c(SCC(=O)NCc2ccco2)nnc1-c1c[nH]c2ccccc12,–,inconclusive: 6.65%
COC(=O)c1cc(=O)n(Cc2ccc3c(c2)OCO3)c(=Nc2ccc(F)cc2)s1,–,inconclusive: -3.83%
COCCNC(=S)NNC(=O)c1ccco1,–,inconclusive: -0.272%
COc1cc2c(cc1OC)C(c1ccccc1O)NCC2 (stereo not given),–,inactive: -2.49%
COc1cc(NC(=O)CCc2c(C)nc3nc(C)nn3c2C)cc(OC)c1,"inconclusive: 0.461 µM [falling, full curve, poor fit]",–
COc1cccc(C#Cc2c(C=O)n(C)c3ccccc23)c1,–,inconclusive: 9.19%
COCCCNC(=O)CC(NS(=O)(=O)c1ccc(F)cc1)c1ccc(OC)cc1 (stereo not given),–,inconclusive: -1.28%
O=C(N/N=C/c1c(O)ccc2ccccc12)c1ccc[n+](CCO)c1,–,inactive: -0.446%
CCN(CC(=O)N1CCc2ccccc2C1)S(=O)(=O)c1ccc2ccccc2c1,–,inactive: -3.66%
CN(C(=O)COC(=O)c1ccccc1NCCO)C1CCS(=O)(=O)C1 (stereo not given),–,inactive: -14.9%
Cn1c(=O)[nH]c(=O)c2c1nc(N1CCN(Cc3ccccc3)CC1)n2CCSc1ncccn1,–,inconclusive: 3.9%
COc1cccc(/C=N/NC(=S)NC2CC3CC2C2C=CCC32)c1O (stereo not given),–,inconclusive: 4.68%
c1cc2ccc3ccc(CN4CCOCC4)c4ccc(c1)c2c34,–,inconclusive: 1.81%
Cc1ccc(N(CC(=O)N2CCCCCC2)S(=O)(=O)c2ccccc2)cc1,–,inactive: 6.44%
O=c1c(Cl)c(NCC2CCCO2)cnn1C12CC3CC(CC(C3)C1)C2 (stereo not given),–,inconclusive: 12.7%
Cc1ccc(-c2csc(N(CCO)CCCn3c(C(F)(F)F)nc4cc(C(F)(F)F)ccc43)n2)cc1,"inconclusive: 28.2 µM [rising, partial curve, poor fit]",–
CCN1CCN(S(=O)(=O)c2cc(OCC(=O)NC3CCCCC3)c(C)cc2Cl)CC1,–,inconclusive: 7.07%
COc1cc(OC)cc(-c2nnc(SCC(=O)N(Cc3ccccc3)C(C)(C)C)o2)c1,–,inconclusive: 5.79%
O=C(CCc1ccccc1)NNC(=S)Nc1ccc(F)cc1,–,inactive: -0.915%
O=c1c2ccccc2n(CC(O)CN2CCCCC2)c2ccccc12 (stereo not given),–,inactive: 10.3%
C[C@@H]1CC=C[C@H]2[C@H]1C(=O)N(Cc1ccccc1)[C@H]2c1ccc(F)c(Br)c1,–,inconclusive: -9.05%

# Reformatted: results already given
Compound | Potency | activity change, negative = inhibition
c1cc2ccc3ccc(CN4CCOCC4)c4ccc(c1)c2c34 | – | inconclusive: 1.81%
Cc1ccc(N(CC(=O)N2CCCCCC2)S(=O)(=O)c2ccccc2)cc1 | – | inactive: 6.44%
O=c1c(Cl)c(NCC2CCCO2)cnn1C12CC3CC(CC(C3)C1)C2 (stereo not given) | – | inconclusive: 12.7%
Cc1ccc(-c2csc(N(CCO)CCCn3c(C(F)(F)F)nc4cc(C(F)(F)F)ccc43)n2)cc1 | inconclusive: 28.2 µM [rising, partial curve, poor fit] | –
CCN1CCN(S(=O)(=O)c2cc(OCC(=O)NC3CCCCC3)c(C)cc2Cl)CC1 | – | inconclusive: 7.07%
COc1cc(OC)cc(-c2nnc(SCC(=O)N(Cc3ccccc3)C(C)(C)C)o2)c1 | – | inconclusive: 5.79%

# Next part.

Compound,Potency,"activity change, negative = inhibition"
COc1ccccc1C(=O)NCCc1c(C)[nH]c2c(C)ccc(F)c12,–,inconclusive: -1.15%
COc1cc(-n2c(C)nc3cccnc32)c(Cl)cc1C(=O)O,–,inconclusive: -24.3%
C=CC[C@H](CC(=O)NCCO)C(=O)NC[C@@H](OC(=O)[C@@H](CC=C)Cc1ccc(F)cc1)c1ccccc1,–,inactive: -0.847%
COc1cc(NC(=S)N2CCN(c3ccccn3)CC2)cc(OC)c1,–,inconclusive: 7.62%
Cn1c(=O)c2c(nc(Br)n2CCCc2ccccc2)n(C)c1=O,–,inconclusive: 0.575%
O=C(C1=C(O)C(=O)N(c2nccs2)C1c1ccccc1)c1cc2ccccc2o1 (stereo not given),–,inconclusive: -0.857%
c1ccc(Nc2nc(-c3ccncc3)cs2)cc1,"inconclusive: 29.1 µM [falling, single point]",–
Cc1ccccc1-n1c(SCC(=O)N/N=C/C=C/c2ccccc2[N+](=O)[O-])nc2ccccc2c1=O,–,inconclusive: -9.86%
Cc1nc2ccc(-c3nc4ccccc4o3)cc2[nH]1,"inconclusive: 14.1 µM [falling, single point]",–
O=c1c2ccccc2oc2nc(-c3ccco3)n(Cc3ccccc3)c(=O)c12,–,inconclusive: -0.908%
O=C(c1cc(COc2ccc(F)cc2Cl)on1)N1CCSCC1,–,inactive: -1.95%
COc1ccc(CCNC2=C(Cl)C(=O)N(CCc3ccc(OC)c(OC)c3)C2=O)cc1OC,"inconclusive: 0.146 µM [falling, full curve]",–
Cc1ccc(C)c(CN2C(=O)NC3(CCCCCC3)C2=O)c1,–,inactive: 10.9%
CCOC(=O)c1sc(NC(=O)Nc2ccccc2)cc1C,–,inconclusive: -2.9%
CC(C)N(C(=O)[C@H]1C[C@H](CC(=O)NCC23CC4CC(CC(C4)C2)C3)C(=O)N2CCc3c([nH]c4cc(CCC(=O)N(C)C)ccc34)[C@]12C)C(C)C,–,inactive: -1.13%
O=C(NNC(=S)Nc1ccc(Cl)c(Cl)c1)c1cccc([N+](=O)[O-])c1,–,inconclusive: 6.84%
Cc1ccc(C2=NCN(c3ccc(C(=O)O)cc3)C(=S)N2)cc1,"inconclusive: 5.62 µM [rising, single point]",–
COc1ccccc1N1CCN(S(=O)(=O)c2ccc3nc(-c4ccccc4)[nH]c3c2)CC1,–,inconclusive: -4.55%
CCOc1ccc(-c2nc(CSCC(=O)NCc3ccco3)c(C)o2)cc1,–,inactive: 18.9%
O=C(Oc1ccccc1)c1cccc2cccc(C(=O)Oc3ccccc3)c12,–,inconclusive: 21.3%
COc1ccc(/C=C/C(=O)c2ccc3ccccc3c2O)cc1CN1CCOCC1,–,inactive: 0.143%
C=CCNCCCOc1ccc(Cl)cc1Br,–,inconclusive: -4.77%

Compound,Potency,"activity change, negative = inhibition"
Cc1nonc1C(=O)N/N=C/c1ccccc1,"inconclusive: 35.5 µM [falling, single point]",–
C=CCn1c(SCC(=O)NC23CC4CC(CC(C4)C2)C3)nc2cc(C(=O)O)ccc2c1=O,–,inconclusive: 2.68%
COc1cccc(Cn2cc(C(=O)NCCN(C)C)nn2)c1,"inconclusive: 0.794 µM [falling, full curve, poor fit]",–
CCN1CCN(C(=O)N2CCOCC2)CC1,–,inconclusive: 9.72%
O=C(N/N=C/c1sc(N2CCCCC2)nc1-c1cccs1)c1cccnc1,–,inconclusive: -14.2%
COc1ccc2nc(C)cc(SCC(=O)N/N=C/c3ccccc3)c2c1,–,inactive: -1.44%
O=C(NCc1ccco1)C1CCC(N2C(=O)c3ccccc3C2=O)CC1 (stereo not given),–,inconclusive: -1.58%
O=C(Cn1nc(C(=O)O)c2ccccc2c1=O)NCc1ccco1,–,inconclusive: 4.57%
CC(OC(=O)c1ccccc1NS(=O)(=O)c1cccc(C(F)(F)F)c1)C(=O)N(C)Cc1ccccc1 (stereo not given),–,inconclusive: 9.5%
Cc1ccc(-c2nnc3sc(CCc4ccccc4)nn23)cc1,–,inconclusive: 25.9%
COc1ccc(-c2cc3cc(OC)c(OC)cc3c(C)n2)cc1C,–,inconclusive: -3.48%
CC(C)(C)NC(=O)CCc1nnc(Cc2c[nH]c3ccccc23)o1,–,inconclusive: -9.37%
COc1cccc(C(=O)C[n+]2cccc3cc(OC)ccc32)c1,–,inconclusive: -8.8%
Cc1c(Br)c([N+](=O)[O-])nn1CC(=O)Nc1cccc2nonc12,–,inactive: 1.06%
COc1ccc(C)cc1NC(=O)COC(=O)c1ccccc1SCC(=O)N1CCCC1,–,inactive: -1.24%
COC(=O)C1=C(C)N(Cc2ccccc2)C(=NCc2cc(OC)c(OC)c(OC)c2)N[C@H]1c1cccc(F)c1,–,inconclusive: 19.4%
Cc1sc(NC(=O)CN2CCOCC2)nc1-c1ccc2c(c1)CCN2S(=O)(=O)c1ccccc1,"inconclusive: 32.6 µM [falling, single point]",–
CCn1ncc(/C=C/C(=O)c2ccccc2)c1C,"inconclusive: 20.6 µM [falling, single point]",–
O=C(Nc1cccc(Br)c1)c1ccc(Cl)c(S(=O)(=O)N2CCOCC2)c1,"inconclusive: 18.4 µM [falling, partial curve, poor fit]",–
